Measured values reported in paper PMC5569033.
Construct, isoform or probe ends are uncertain for at least one entry. At least one verdict was read from the data and is not stated in words by the source.

Columns and labels:
[1] = target: streptavidin (Streptomyces avidinii) (UniProt P22629); assay: Spinach aptamer fluorescence (bulk, droplets; standard curve linear 1-40 mg/l); settings: DFHBI-1T, Mg2+, K+; Panel: 10 uM RNA, 50 mM Tris-HCl pH 7.5, 125 mM KCl, 5 mM MgCl2, 2 uM DFHBI or DFHBI-1T, folded at 37 C; streptavidin curve: 100 mM Tris pH 7.5, 200 mM KCl, 10 mM NaCl; commercial protein; label: DFHBI-1T dye (non-covalent); letters put together from the description
thrombin = assay: Spinach aptamer fluorescence (bulk and droplets); settings: DFHBI or DFHBI-1T 2 uM, 5 mM Mg2+, 125 mM K+; Panel: 10 uM RNA, 50 mM Tris-HCl pH 7.5, 125 mM KCl, 5 mM MgCl2, 2 uM DFHBI or DFHBI-1T, folded at 37 C; streptavidin curve: 100 mM Tris pH 7.5, 200 mM KCl, 10 mM NaCl; commercial protein; label: DFHBI or DFHBI-1T dye (non-covalent); letters put together from the description

GAUGUAACUGAAUGAAAUGGUGAAGGACGGGUCCACGACCGACCAGAAUCAUGCAAGUGCGUAAGAUAGUCGCGGGCCGGGGUUGUUGAGUAGAGUGUGAGCUCCGUAACUAGUUACAUC [Spinach2-Streptavidin (SA) aptamer sensor]
binding result [1]: binds

GAUGUAACUGAAUGAAAUGGUGAAGGACGGGUCCAGGAACAAAGCUGAAGUACUUACCUUGUUGAGUAGAGUGUGAGCUCCGUAACUAGUUACAUC [Spinach-thrombin aptamer sensor]
binding result (thrombin): binds
